Measured values reported in patent publication US20250340551A1, “SMALL MOLECULE MODULATORS OF STAT6” (Gilead Sciences, Inc., priority 2024, published 2025).

Protein sequences, listed by entry. Tags and fused reporters are not part of them. Residues count along the entry.
UniProt P42226, 122-658 limits assumed: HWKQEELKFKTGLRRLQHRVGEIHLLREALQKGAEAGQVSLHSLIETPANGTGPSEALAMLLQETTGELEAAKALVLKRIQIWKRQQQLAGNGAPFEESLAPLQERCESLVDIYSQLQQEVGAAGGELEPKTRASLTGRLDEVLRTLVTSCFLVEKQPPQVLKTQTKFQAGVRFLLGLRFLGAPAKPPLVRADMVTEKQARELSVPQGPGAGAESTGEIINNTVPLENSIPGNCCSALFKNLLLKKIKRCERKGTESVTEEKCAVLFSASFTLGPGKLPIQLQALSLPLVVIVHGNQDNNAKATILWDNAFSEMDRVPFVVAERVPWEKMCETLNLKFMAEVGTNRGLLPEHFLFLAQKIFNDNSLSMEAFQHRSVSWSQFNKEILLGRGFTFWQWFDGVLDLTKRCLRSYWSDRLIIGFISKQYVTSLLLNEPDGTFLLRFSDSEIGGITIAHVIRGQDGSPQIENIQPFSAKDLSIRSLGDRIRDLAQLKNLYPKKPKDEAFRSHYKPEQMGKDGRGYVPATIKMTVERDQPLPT

Target: human STAT6 (Homo sapiens (Human), UniProt P42226)
Assay: Surface plasmon resonance assay (Biacore 8K, binding to immobilized STAT6)
Details: read-out: STAT6 SPR Kd; human STAT6 aa122-658, N-terminal His-tag, CM5 chip, 25° C.; geometric mean

| Structure (SMILES) | Kd [nM] |
| --- | --- |
| CN(C)C(=O)c1ccc(C2CCN(Cc3cc4c(-c5ccc(N)c[n+]5[O-])ccnc4n3C)CC2)cc1 | 23.9 |
| CNc1ccc(-c2ccnc3c2cc(CN2CCC(c4ccc(C(=O)N(C)C)cc4)CC2)n3CC(C)(F)F)cn1 | 628 |

The structures given here were assigned with low confidence; some may be wrong.
